Reference: PMC4692422
Results are given in words; binding and its absence hold for the method and conditions named. In cells and extracts the contact can be indirect. Some entries that bind do so weakly or less than the wild type.

The chains behind the UniProt entries cited, without tags or fusion partners. Where a name states a change or a piece, a line headed by the entry shows the natural chain unless it says otherwise. A line that says so, or that is headed by a name, gives the form on record, which may keep a tag or linker.
UniProt P42230: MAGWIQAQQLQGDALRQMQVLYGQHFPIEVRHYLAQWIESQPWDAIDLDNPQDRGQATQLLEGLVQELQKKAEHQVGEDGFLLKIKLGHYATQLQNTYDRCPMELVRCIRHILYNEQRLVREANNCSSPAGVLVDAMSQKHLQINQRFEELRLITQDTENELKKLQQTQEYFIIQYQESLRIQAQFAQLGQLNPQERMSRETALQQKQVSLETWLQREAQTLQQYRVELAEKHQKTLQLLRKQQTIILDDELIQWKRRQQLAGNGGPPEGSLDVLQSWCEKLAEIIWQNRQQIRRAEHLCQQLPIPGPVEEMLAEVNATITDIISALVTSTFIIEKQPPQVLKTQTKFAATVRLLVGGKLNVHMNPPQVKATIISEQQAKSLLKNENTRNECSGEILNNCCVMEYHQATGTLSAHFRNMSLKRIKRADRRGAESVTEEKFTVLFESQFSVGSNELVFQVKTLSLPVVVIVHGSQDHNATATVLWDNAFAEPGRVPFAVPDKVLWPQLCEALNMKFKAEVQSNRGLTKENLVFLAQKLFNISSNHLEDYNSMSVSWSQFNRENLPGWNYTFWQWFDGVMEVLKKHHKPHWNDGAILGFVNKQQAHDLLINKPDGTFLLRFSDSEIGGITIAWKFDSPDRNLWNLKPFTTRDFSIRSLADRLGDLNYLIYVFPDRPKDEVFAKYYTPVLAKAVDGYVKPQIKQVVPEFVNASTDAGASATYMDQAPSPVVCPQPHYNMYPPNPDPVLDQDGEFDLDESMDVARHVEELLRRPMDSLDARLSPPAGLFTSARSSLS
Flag-tagged STAT5 phosphomimic point mutant Y694 (Tyr to Asp) (P42230, form named): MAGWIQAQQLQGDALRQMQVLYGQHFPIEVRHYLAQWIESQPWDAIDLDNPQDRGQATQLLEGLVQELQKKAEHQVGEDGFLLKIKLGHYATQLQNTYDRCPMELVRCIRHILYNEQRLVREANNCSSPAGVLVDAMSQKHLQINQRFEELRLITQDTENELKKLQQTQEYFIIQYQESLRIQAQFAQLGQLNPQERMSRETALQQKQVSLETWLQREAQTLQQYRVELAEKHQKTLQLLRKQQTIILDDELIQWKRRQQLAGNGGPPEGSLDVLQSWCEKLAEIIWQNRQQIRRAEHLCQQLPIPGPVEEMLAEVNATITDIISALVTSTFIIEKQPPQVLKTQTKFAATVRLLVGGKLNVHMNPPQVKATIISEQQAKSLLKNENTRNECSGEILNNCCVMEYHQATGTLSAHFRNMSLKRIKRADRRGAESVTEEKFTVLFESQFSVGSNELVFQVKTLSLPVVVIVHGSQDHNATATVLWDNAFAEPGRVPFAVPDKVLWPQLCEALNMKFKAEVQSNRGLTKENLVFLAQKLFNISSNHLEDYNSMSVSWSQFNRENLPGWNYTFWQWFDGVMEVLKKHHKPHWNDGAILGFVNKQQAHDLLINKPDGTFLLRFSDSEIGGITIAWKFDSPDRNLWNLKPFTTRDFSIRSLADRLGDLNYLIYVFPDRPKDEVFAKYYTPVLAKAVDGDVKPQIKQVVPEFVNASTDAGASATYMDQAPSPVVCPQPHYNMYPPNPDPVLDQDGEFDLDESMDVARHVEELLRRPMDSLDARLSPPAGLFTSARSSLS
Flag-tagged STAT5 phosphomimic point mutant Y694 (Tyr to Glu) (P42230, form named): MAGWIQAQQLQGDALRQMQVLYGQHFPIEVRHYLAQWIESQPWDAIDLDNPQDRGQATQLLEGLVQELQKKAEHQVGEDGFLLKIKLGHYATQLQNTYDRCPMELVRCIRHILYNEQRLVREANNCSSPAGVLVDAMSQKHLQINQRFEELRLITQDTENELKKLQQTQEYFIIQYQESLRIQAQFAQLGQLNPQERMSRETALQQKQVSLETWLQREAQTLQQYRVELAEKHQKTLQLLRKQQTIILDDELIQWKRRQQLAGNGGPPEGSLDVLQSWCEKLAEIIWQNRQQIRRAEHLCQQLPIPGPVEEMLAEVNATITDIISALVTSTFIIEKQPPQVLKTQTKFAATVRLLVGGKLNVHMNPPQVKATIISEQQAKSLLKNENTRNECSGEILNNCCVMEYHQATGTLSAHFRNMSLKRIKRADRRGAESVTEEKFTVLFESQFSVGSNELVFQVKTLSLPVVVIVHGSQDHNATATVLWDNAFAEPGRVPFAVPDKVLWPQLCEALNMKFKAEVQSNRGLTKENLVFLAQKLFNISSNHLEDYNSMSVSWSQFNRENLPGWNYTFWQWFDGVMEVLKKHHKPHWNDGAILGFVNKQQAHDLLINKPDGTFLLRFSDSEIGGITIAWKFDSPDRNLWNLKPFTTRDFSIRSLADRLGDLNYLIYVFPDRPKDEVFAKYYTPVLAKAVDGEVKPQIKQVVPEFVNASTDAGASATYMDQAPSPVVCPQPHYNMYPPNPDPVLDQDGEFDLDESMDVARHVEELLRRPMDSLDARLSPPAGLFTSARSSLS
Flag-tagged STAT5 phosphorylation-defective point mutant Y694 (Tyr to Phe) (P42230, form named): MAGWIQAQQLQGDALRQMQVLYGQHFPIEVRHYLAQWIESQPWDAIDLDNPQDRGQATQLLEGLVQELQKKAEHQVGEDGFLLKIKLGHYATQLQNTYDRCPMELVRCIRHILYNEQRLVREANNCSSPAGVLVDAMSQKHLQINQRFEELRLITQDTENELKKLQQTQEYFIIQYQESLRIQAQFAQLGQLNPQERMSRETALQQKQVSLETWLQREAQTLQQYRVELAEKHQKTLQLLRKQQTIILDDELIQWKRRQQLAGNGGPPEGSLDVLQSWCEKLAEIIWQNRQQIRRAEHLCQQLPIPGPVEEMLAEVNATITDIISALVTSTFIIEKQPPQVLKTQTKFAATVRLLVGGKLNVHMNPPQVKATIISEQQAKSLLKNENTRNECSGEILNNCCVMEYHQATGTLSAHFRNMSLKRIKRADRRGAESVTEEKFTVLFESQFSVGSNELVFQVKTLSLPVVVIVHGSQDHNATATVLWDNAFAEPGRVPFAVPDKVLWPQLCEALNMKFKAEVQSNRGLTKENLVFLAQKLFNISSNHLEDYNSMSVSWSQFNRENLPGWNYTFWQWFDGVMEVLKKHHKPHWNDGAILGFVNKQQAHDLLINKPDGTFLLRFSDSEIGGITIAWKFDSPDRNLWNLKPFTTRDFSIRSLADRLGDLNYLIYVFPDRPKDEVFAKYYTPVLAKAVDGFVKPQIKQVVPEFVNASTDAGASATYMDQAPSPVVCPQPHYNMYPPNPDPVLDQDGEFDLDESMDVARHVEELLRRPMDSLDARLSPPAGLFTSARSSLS

Assays:
Assay in all cases: co-IP; HEK-293T co-transfected with STAT5 and DUSP4 plasmids; 10 ng/ml hIFNbeta and 25 uM pervanadate for 30 m before lysis; SDS-free RIPA buffer (50 mM Tris-HCl, 0.25% sodium deoxycholate, 150 mM NaCl, 0.1% NP-40, 1 mM EDTA); Flag-STAT5 precipitated on Anti-Flag M2 affinity gel at 4°C for 3 h; DUSP4 detected by western blot
[1] = target: Flag-tagged WT STAT5 (mouse STAT5a) (mouse) (UniProt P42230)
[2] = target: Flag-tagged STAT5 phosphomimic point mutant Y694 (Tyr to Asp) (mouse) (UniProt P42230)
[3] = target: Flag-tagged STAT5 phosphomimic point mutant Y694 (Tyr to Glu) (mouse) (UniProt P42230)
[4] = target: Flag-tagged STAT5 phosphorylation-defective point mutant Y694 (Tyr to Phe) (mouse) (UniProt P42230)

binding [1] | binding [2] | binding [3] | binding [4] | Binder
binds | – | – | – | WT DUSP4 (mouse dual-specificity phosphatase 4) (enzyme, UniProt Q8BFV3 1-398) MVTMEELREMDCSVLKRLMNRDENGGGGSAGGNGSGSHGALGLLSGGKCLLLDCRPFLAHSAGYIRGSVNVRCNTIVRRRAKGSVSLEQILPAEEEVRARLRSGLYSAVIVYDERSPRAESLREDSTVSLVVQALRRNAERTDICLLKGGYERFSSEYPEFCSKTKALAAIPPPVPPSTNESLDLGCSSCGTPLHDQGGPVEILPFLYLGSAYHAARRDMLDALGITALLNVSSDCPNHFEGHYQYKCIPVEDNHKADISSWFMEAIEYIDAVKDCRGRVLVHCQAGISRSATICLAYLMMKKRVRLEEAFEFVKQRRSIISPNFSFMGQLLQFESQVLTTSCAAEAASPSGPLRERGKATPTPTSQFVFSFPVSVGVHAAPSNLPYLHSPITTSPSC
binds | binds | binds | binds | DUSP4-PD (phosphatase-dead mutant DUSP4, C284S) (enzyme, UniProt Q8BFV3 1-398) MVTMEELREMDCSVLKRLMNRDENGGGGSAGGNGSGSHGALGLLSGGKCLLLDCRPFLAHSAGYIRGSVNVRCNTIVRRRAKGSVSLEQILPAEEEVRARLRSGLYSAVIVYDERSPRAESLREDSTVSLVVQALRRNAERTDICLLKGGYERFSSEYPEFCSKTKALAAIPPPVPPSTNESLDLGCSSCGTPLHDQGGPVEILPFLYLGSAYHAARRDMLDALGITALLNVSSDCPNHFEGHYQYKCIPVEDNHKADISSWFMEAIEYIDAVKDCRGRVLVHSQAGISRSATICLAYLMMKKRVRLEEAFEFVKQRRSIISPNFSFMGQLLQFESQVLTTSCAAEAASPSGPLRERGKATPTPTSQFVFSFPVSVGVHAAPSNLPYLHSPITTSPSC
